Measured values published in the supplement of paper PMC10849652.
The list shows a part of the results.

Experiments:
Test in all cases: log2 fold change, soluble protein after heating vs DMSO (PISA); higher = thermal stabilisation; K562 cells, 10 uM, 30 min; active = over 0.2 and 3.5 SD of the protein, either way, in both replicates (recomputed)
[1] = compound: CC[C@@H]1C(=O)N(C)c2cnc(Nc3ccc(C(=O)NC4CCN(C)CC4)cc3OC)nc2N1C1CCCC1
In short: (§1)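 Soluble protein was defined as the supernatant after 21,000xg for 90 min. It came from K562 cells at 2×10^6 cells/mL given 10 μM compound for 30 min, heated in aliquots for 3 min across 48°C-58°C, pooled, and extracted in PBS with 0.5% NP-40 at 4°C, and was quantified by TMTpro 16plex LC-MS/MS with equalised channel sums. Thermal stability against control samples, from duplicates, is reported as log2 fold change.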

[2] = compound: CC[C@H](C)N1C=C(C2=C(C=C(C=C21)C3=CN=C(C=C3)N4CCNCC4)C(=O)NCC5=C(C=C(NC5=O)C)C)C
In short: as §1

sotrastaurin = compound: CN1CCN(c2nc(C3=C(c4c[nH]c5ccccc45)C(=O)NC3=O)c3ccccc3n2)CC1 [sotrastaurin]
In short: as §1

[3] = compound: CNC(=O)C1=CC=CC=C1NC2=NC(=NC=C2Cl)NC3=C(C=C(C=C3)N4CCOCC4)OC
In short: as §1

rucaparib = compound: CNCc1ccc(-c2[nH]c3cc(F)cc4c3c2CCNC4=O)cc1 [rucaparib]
In short: as §1

encorafenib = compound: COC(=O)N[C@@H](C)CNc1nccc(-c2cn(C(C)C)nc2-c2cc(Cl)cc(NS(C)(=O)=O)c2F)n1 [encorafenib]
In short: as §1

volasertib = compound: CC[C@@H]1C(=O)N(C)c2cnc(Nc3ccc(C(=O)N[C@H]4CC[C@H](N5CCN(CC6CC6)CC5)CC4)cc3OC)nc2N1C(C)C [volasertib]
In short: as §1

epoxomicin = compound: CC[C@H](C)[C@@H](C(=O)N[C@@H]([C@@H](C)O)C(=O)N[C@@H](CC(C)C)C(=O)[C@]1(CO1)C)NC(=O)[C@H]([C@@H](C)CC)N(C)C(=O)C [epoxomicin]
In short: as §1

Tubastatin A = compound: CN1CCc2c(c3ccccc3n2Cc2ccc(C(=O)NO)cc2)C1 [Tubastatin A]
In short: as §1

[4] = compound: CCn1c(C(=O)N(C2CC2)C2CC2)cc2c3c(ncn3C)c(Nc3cc(C)n(C)n3)nc21
In short: as §1

rosiglitazone = compound: CN(CCOC1=CC=C(C=C1)C[C@H]2C(=O)NC(=O)S2)C3=CC=CC=N3 (racemic) [rosiglitazone]
In short: as §1

alvocidib = compound: CN1CC[C@H](c2c(O)cc(O)c3c(=O)cc(-c4ccccc4Cl)oc23)[C@H](O)C1 [alvocidib]
In short: as §1

[5] = compound: CCn1cc(-c2ccnc3[nH]c(-c4cccc(CN(C)C)c4)cc23)c(-c2ccc(NC(=O)N(C)C)cc2)n1
In short: as §1

[6] = compound: CN1C2=C(C3=C1C(=O)N(N=C3)CC4=CC(=CC=C4)N)SC(=C2)S(=O)C
In short: as §1

[7] = compound: CN1CCC(CNc2ccc3ncc(-c4cccc(OC(F)(F)F)c4)n3n2)CC1
In short: as §1

saracatinib = compound: CN1CCN(CCOc2cc(OC3CCOCC3)c3c(Nc4c(Cl)ccc5c4OCO5)ncnc3c2)CC1 [saracatinib]
In short: as §1

[8] = compound: CNc1nc(-c2ccc3c(N)n[nH]c3c2)cc(N2C[C@@H](C(=O)NC3CCCCC3)CC[C@H]2C)n1
In short: as §1

[9] = compound: CN(C)CC(=O)Nc1ccc2[nH]c(=O)c3ccccc3c2c1
In short: as §1

defactinib = compound: CNC(=O)c1ccc(Nc2ncc(C(F)(F)F)c(NCc3nccnc3N(C)S(C)(=O)=O)n2)cc1 [defactinib]
In short: as §1

[10] = compound: COC(=O)[C@H](CCSC)NC(=O)C1=C(C=C(C=C1)NC[C@H](CS)N)C2=CC=CC=C2
In short: as §1

Measured: log2 fold change

USP48 (UniProt Q86UV5)
inactive: [1] -0.159 | [2] 0.059 | sotrastaurin -0.123 | [3] -0.045 | rucaparib -0.102 | encorafenib 0.318

UTP20 (UniProt O75691)
inactive: volasertib 0.093 | epoxomicin -0.355 | Tubastatin A -0.028 | [3] -0.051

VAMP3 (UniProt Q15836)
inactive: [2] -0.051 | epoxomicin 0.101 | [4] 0 | rosiglitazone -0.019 | alvocidib 0.001 | Tubastatin A -0.111 | [3] 0.016

USP11 (UniProt P51784)
inactive: volasertib -0.006 | epoxomicin -0.009 | [5] -0.09 | [6] 0.269 | [7] 0.023 | saracatinib -0.045 | sotrastaurin -0.166 | alvocidib 0.328 | [8] 0.041

UCHL1 (UniProt P09936)
inactive: [5] -0.466 | [7] -0.007

USF1 (UniProt P22415)
inactive: volasertib -0.062 | [2] 0.029 | epoxomicin 0.153 | [4] -0.212 | [5] 0.187 | [9] -0.318 | rosiglitazone -0.131 | [7] 0.115 | sotrastaurin -0.018 | [3] 0.106 | defactinib 0.122 | [10] -0.191

USP16 (UniProt Q9Y5T5)
inactive: [2] 0.253 | epoxomicin 0.031 | [4] -0.102 | [5] 0.021 | [9] -0.027 | rosiglitazone -0.06 | [6] 0.3 | [7] -0.015 | saracatinib -0.089 | alvocidib 0.143 | Tubastatin A 0.212 | [3] 0.026 | defactinib 0.162 | [8] 0.055 | [10] -0.134

USP32 (UniProt Q8NFA0)
inactive: volasertib -0.402 | [2] 0.127 | epoxomicin -0.158 | [4] -0.205 | [5] -0.104 | [6] 0.196 | [7] -0.068 | saracatinib -0.087 | sotrastaurin 0.083 | alvocidib 0.071 | Tubastatin A 0.133 | [3] -0.24 | [8] 0.101

VAV1 (UniProt P15498)
inactive: epoxomicin 0.063 | [4] -0.053 | [5] -0.005 | [9] 0.059 | [7] -0.112 | alvocidib -0.076 | Tubastatin A 0.101 | [3] 0.07 | defactinib 0.051 | [10] -0.019

USP46 (UniProt P62068)
inactive: volasertib 0.086 | epoxomicin -0.062 | [4] 0.092 | [9] -0.092 | sotrastaurin -0.117 | [3] -0.22 | defactinib 0.06 | [10] 0.125

USP33 (UniProt Q8TEY7)
inactive: [4] -0.038 | [9] -0.093 | [6] 0.217 | saracatinib -0.159 | sotrastaurin -0.16 | Tubastatin A 0.212 | [3] -0.049 | defactinib 0.132 | [8] -0.051 | [10] -0.164

USB1 (UniProt Q9BQ65)
inactive: volasertib -0.076 | [4] 0.015 | [5] -0.037 | [9] -0.018 | [7] 0.056 | alvocidib 0.026 | Tubastatin A 0.308 | [3] 0.014 | defactinib -0.283 | [10] -0.096

USP4 (UniProt Q13107)
inactive: [6] 0.264 | saracatinib -0.139 | [8] 0.102

UFSP1 (UniProt Q6NVU6)
inactive: [4] -0.073 | [3] -0.127

UHRF1 isoform 2 (UniProt Q96T88)
inactive: [4] -0.189 | Tubastatin A -0.053 | [3] 0.006

UBP1 (UniProt Q9NZI7)
inactive: [2] -0.166 | epoxomicin -0.293 | [9] -0.127 | rosiglitazone 0.025 | [6] 0.441 | saracatinib -0.349 | sotrastaurin 0.018 | alvocidib -0.041 | Tubastatin A -0.062 | defactinib 0.186 | [8] -0.143 | [10] 0.112

VCPIP1 (UniProt Q96JH7)
inactive: epoxomicin -0.019 | [4] -0.065 | [5] 0.121 | [9] 0.115 | [7] -0.602 | sotrastaurin -0.529 | [3] 0.192 | defactinib 0.053 | [10] -0.19

USP12 (UniProt O75317)
inactive: [1] 0.115 | [5] 0.158 | [9] -0.026 | [6] 0.066 | [7] 0.017 | saracatinib 0.195 | alvocidib -0.035 | Tubastatin A -0.056 | defactinib -0.013 | rucaparib 0.069 | [8] -0.05 | encorafenib -0.047 | [10] 0.108

UGP2 (UniProt C9JWG0)
inactive: [2] -0.224 | rosiglitazone 0.157 | sotrastaurin 0.099

UPF3A (UniProt Q9H1J1)
inactive: [1] 0.249 | epoxomicin 0 | [4] -0.065 | sotrastaurin 0.067 | [3] -0.086 | rucaparib 0.067 | encorafenib -0.035

UQCR11 (UniProt O14957)
inactive: [2] -0.089 | [4] 0.059 | [5] -0.09 | [7] 0.26 | [3] 0.033

VASN (UniProt Q6EMK4)
inactive: epoxomicin -0.071 | [4] 0.229 | [9] -0.129 | rosiglitazone -0.034 | sotrastaurin 0.051 | [3] -0.068 | defactinib -0.153 | [10] -0.076

UNG (UniProt P13051)
inactive: epoxomicin -0.024 | [4] 0.049 | [5] -0.106 | [9] 0 | rosiglitazone 0.14 | [6] -0.079 | [7] -0.002 | saracatinib 0.086 | sotrastaurin 0.03 | alvocidib -0.178 | Tubastatin A 0.024 | [3] -0.031 | defactinib -0.043 | [8] -0.008 | [10] 0.033

UBTF (UniProt P17480)
inactive: [4] -0.129 | [5] 0.045 | rosiglitazone -0.065 | [7] 0.058 | sotrastaurin -0.028 | alvocidib -0.044 | [3] -0.088

UTP23 (UniProt Q9BRU9)
inactive: [2] 0.157 | [6] 0.255 | saracatinib -0.03 | alvocidib 0.101 | [8] -0.033

ULBP1 (UniProt Q9BZM6)
inactive: volasertib -0.178 | epoxomicin 0.152 | [9] -0.019 | [6] 0.007 | saracatinib -0.027 | sotrastaurin -0.175 | Tubastatin A 0.016 | [3] -0.096 | defactinib 0.064 | [8] 0.07 | [10] 0.048

Random excerpt: two records from the list, in no set order.
VASN (UniProt Q6EMK4)
inactive: epoxomicin -0.071 | [4] 0.229 | [9] -0.129 | rosiglitazone -0.034 | sotrastaurin 0.051 | [3] -0.068 | defactinib -0.153 | [10] -0.076

UBTF (UniProt P17480)
inactive: [4] -0.129 | [5] 0.045 | rosiglitazone -0.065 | [7] 0.058 | sotrastaurin -0.028 | alvocidib -0.044 | [3] -0.088

Next part:

URB2 (UniProt Q14146)
inactive: [2] -0.074 | [4] 0.223 | rosiglitazone 0.068 | alvocidib -0.101 | [3] -0.18

UQCC3 (UniProt Q6UW78)
inactive: [2] -0.067 | epoxomicin -0.063 | [5] 0.021 | rosiglitazone 0.163 | [7] 0.232 | alvocidib 0.284

UPP1 (UniProt Q16831)
inactive: volasertib -0.06 | Tubastatin A 0.027

URGCP (UniProt Q8TCY9)
inactive: volasertib -0.128 | [2] -0.263 | epoxomicin 0.07 | [4] -0.08 | [5] -0.007 | [9] 0.022 | rosiglitazone -0.063 | [6] 0.012 | [7] -0.107 | saracatinib 0.072 | sotrastaurin 0.052 | alvocidib -0.031 | Tubastatin A 0.098 | [3] 0.016 | defactinib -0.058 | [8] -0.079 | [10] -0.102

USP54 (UniProt Q70EL1)
inactive: volasertib -0.217 | [4] 0.077 | [5] 0.072 | [9] 0.03 | rosiglitazone 0.036 | [6] 0.141 | [7] 0.051 | saracatinib -0.074 | Tubastatin A -0.09 | [3] 0.059 | defactinib -0.074 | [8] 0.132 | [10] -0.151

USP27X (UniProt A6NNY8)
inactive: epoxomicin 0.021 | [6] 0.018 | saracatinib -0.195 | alvocidib -0.005 | Tubastatin A -0.103 | [8] 0.279

URM1 isoform 2 (UniProt Q9BTM9)
inactive: [1] 0.058 | [2] 0.153 | [4] -0.12 | [5] -0.011 | [9] -0.193 | rosiglitazone 0.053 | [6] -0.265 | [7] 0.082 | saracatinib 0.203 | sotrastaurin 0.084 | Tubastatin A -0.111 | [3] -0.051 | defactinib -0.045 | rucaparib 0.014 | [8] -0.212 | encorafenib -0.107 | [10] 0.015

UNC5B (UniProt Q8IZJ1)
inactive: epoxomicin 0.27 | [9] 0.438 | [6] -0.092 | saracatinib 0.078 | Tubastatin A -0.028 | defactinib -0.133 | [8] -0.072 | [10] 0.054

UBR1 (UniProt Q8IWV7)
inactive: [2] 0.164 | epoxomicin -0.071 | [4] -0.224 | [5] -0.096 | rosiglitazone 0.03 | [6] 0.213 | [7] -0.521 | saracatinib -0.145 | sotrastaurin 0.128 | alvocidib -0.103 | [3] -0.02 | [8] -0.034

UNC13A (UniProt Q9UPW8)
inactive: [4] 0.029 | rosiglitazone -0.044 | sotrastaurin -0.05 | Tubastatin A 0.024 | [3] -0.05

USP1 (UniProt O94782)
inactive: [1] 0.019 | [2] 0.063 | epoxomicin 0.055 | [4] -0.059 | [9] -0.097 | rosiglitazone 0.041 | sotrastaurin -0.12 | alvocidib -0.228 | Tubastatin A 0.087 | [3] -0.033 | defactinib -0.255 | rucaparib -0.018 | encorafenib 0.006 | [10] -0.116

UTP14C (UniProt Q5TAP6)
inactive: epoxomicin -0.002 | [4] 0.015 | sotrastaurin -0.014 | [3] -0.181

UBQLN1 isoform 2 (UniProt Q9UMX0)
inactive: [4] -0.102 | [6] 0.126 | saracatinib -0.285 | [3] -0.239 | [8] -0.049

UBN2 (UniProt Q6ZU65)
inactive: [2] 0.108 | [9] -0.147 | alvocidib 0.254 | defactinib 0.236 | [10] -0.108
